Values of other authors as cited in patent US20060293249A1, “Porphyrin derivatives” (PhotoBiotics Limited, priority 2002, published 2006).
At least one compound was matched to its structure with a doubt left.

Conditions: compounds known in the art; cited from earlier work

SMILES: Oc1cccc(-c2c3nc(c(-c4cccc(O)c4)c4ccc([nH]4)c(-c4cccc(O)c4)c4nc(c(-c5cccc(O)c5)c5ccc2[nH]5)CC4)C=C3)c1 [mTHPC, meta-(tetrahydroxyphenyl)-chlorin]
- singlet oxygen quantum yield: 0.43
